# Measured values published in PubChem BioAssay (NCATS).
# This list was built around the results that the source calls inconclusive (neither active nor inactive); the mix of calls is not that of the screen. Potencies beside an inconclusive call are fits to weak or partial responses and may not hold up. Calls of active or inactive are those of the source. Unless noted, calls come from the whole dose curve; as a rule, active = well fitted curve in the direction sought with a large enough effect; inconclusive = small, poorly fitted or top-dose-only effect, or another doubt; inactive = no such curve, though single readings can be large; an effect the other way counts as inactive or inconclusive.
# Tests used:
# [1] = Quantitative High-Throughput drug screen in 47 multiple myeloma cell lines against the NCATS MIPE library collection: VP6_DJ cell viability assay (AID 1919867); note: nearly all actives have a fitted effect of over 40% in size
# Outline: (§1)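 Cells were exposed to library compounds for 48 hours, after which ATP was measured by CellTiter-Glo. Signal was taken as median relative luminescence units.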
# [2] = Quantitative High-Throughput drug screen in 47 multiple myeloma cell lines against the NCATS MIPE library collection: UTMC2_PLB cell viability assay (AID 1919868); details: CellTiter-Glo ATP luminescence, 48 h; viability (% of DMSO control): at 45.8 µM (top of the series); note: nearly all actives have a fitted effect of over 55% in size;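 for viability (% of DMSO control): 100% = DMSO-only wells and 0% = media-only wells without cells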
# Outline: as §1
# [3] = Quantitative High-Throughput drug screen in 47 multiple myeloma cell lines against the NCATS MIPE library collection: PCM6_Riken cell viability assay (AID 1919870); note: nearly all actives have a fitted effect of over 30% in size;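 for viability (% of control): 100% = DMSO-only wells and 0% = media-only wells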
# Outline: as §1
# [4] = Quantitative High-Throughput drug screen in 47 multiple myeloma cell lines against the NCATS MIPE library collection: OPM2_DSMZ cell viability assay (AID 1919872); note: nearly all actives have a fitted effect of over 30% in size
# Outline: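 Inhibition of cell viability is measured here. Each line was plated at 500 cells per well, treated with MIPE 4.0 drugs, kept 48 hours at 37C, then assayed for ATP content by CellTiter-Glo luminescence.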
# [5] = Quantitative High-Throughput drug screen in 47 multiple myeloma cell lines against the NCATS MIPE library collection: RPMI8226_ATCC cell viability assay (AID 1919871); details: RPMI8226 myeloma viability, CellTiter-Glo ATP luminescence, 48 h; viability (% of control): at 45.8 µM (top of the series); note: nearly all actives have a fitted effect of over 30% in size
# Outline: as §1
# [6] = Quantitative High-Throughput drug screen in 47 multiple myeloma cell lines against the NCATS MIPE library collection: KMS11_JCRBsus cell viability assay (AID 1919873); note: nearly all actives have a fitted effect of over 50% in size;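 for viability (% of control): 100% = DMSO-only wells and 0% = media-only wells without cells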
# Outline: as §1
# [7] = Quantitative High-Throughput drug screen in 47 multiple myeloma cell lines against the NCATS MIPE library collection: KMS28BM_JCRB cell viability assay (AID 1919874); details: CellTiter-Glo ATP, 48 h; viability, % of control: at 45.8 µM (top of the series); note: nearly all actives have a fitted effect of over 35% in size
# Outline: as §1
# [8] = qHTS for identification of novel therapeutic agents for treatment of microphthalmiaassociated transcription factor (MiT) renal cell carcinoma (RCC) (AID 1963991; calls by dose curve); details: TFE3-RCC UOK109 viability, CellTiter-Glo, 48 h; active = Z-AUC below -0.8 in all three lines
# Outline: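 UOK109/UOK124/UOK145 (TFE3 fusions, three partners); 500 cells/well; MIPE v4.0, 1912 cpds, 11 conc.; 48 h, 37 C; CellTiter-Glo, 15 min RT; lum. Norm.: DMSO 100%, empty 0%.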
# [9] = test system: 7G8; test: qHTS profiling for inhibitors of Plasmodium falciparum proliferation (AID 504749); note: nearly all actives have a fitted effect of over 60% in size; details: P. falciparum in erythrocytes, SYBR Green DNA, 72 h; series mostly up to 28.7 µM
# Outline: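 Each compound contacts P. falciparum-infected red blood cells for 72 h at 37 C; lysis buffer (Tris, EDTA, saponin, Triton X, SYBR Green I) is added and fluorescence measured next morning; values normalized to controls.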
# Potency is the fitted concentration of half-maximal effect.
SMILES,Potency [1],Potency [2],Potency [3],Potency [4],Potency [5],Potency [6],Potency [7],Potency [8],viability (% of DMSO control) [2],Potency [9]
COc1cc2c(cc1OC)C1CC(=O)C(CC(C)C)CN1CC2 (stereo unspecified),"inconclusive: 18.7 µM [cytotoxic, partial curve, poor fit]","inconclusive: 0.0264 µM [rising, full curve, poor fit]","inconclusive: 0.0017 µM [rising, full curve, poor fit]","inconclusive: 13.2 µM [cytotoxic, partial curve, poor fit]",,,,,,
O=C(Nc1cccc2c(=O)cc(-c3nn[nH]n3)oc12)c1ccc(OCCCCc2ccccc2)cc1,"inconclusive: 37.2 µM [cytotoxic, partial curve, poor fit]",active: 14.8 µM,"inconclusive: 20.9 µM [cytotoxic, partial curve]",,"inconclusive: 23.5 µM [cytotoxic, single point]",active: 23.5 µM,"inconclusive: 20.9 µM [cytotoxic, partial curve]","inconclusive: 16.6 µM [falling, partial curve]",,
C=CC1=C(C(=O)O)N2C(=O)[C@@H](NC(=O)C(=NO)c3csc(N)n3)[C@H]2SC1,"inconclusive: 20.9 µM [cytotoxic, single point]","inconclusive: 1.05 µM [rising, full curve, poor fit]",active: 11.8 µM,,inactive,"inconclusive: 1.32 µM [rising, full curve, poor fit]",,"inconclusive: 0.00935 µM [rising, full curve]",,
COc1cc(-c2nn(C3CCC(N4CCN(C(C)=O)CC4)CC3)c3ncnc(N)c23)ccc1NC(=O)c1cc2ccccc2n1C (stereo unspecified),active: 6.62 µM,"inconclusive: 0.264 µM [cytotoxic, full curve, poor fit]","inconclusive: 5.9 µM [cytotoxic, partial curve, poor fit]","inconclusive: 29.6 µM [cytotoxic, single point]",,active: 4.18 µM,active: 3.32 µM,"inconclusive: 0.662 µM [falling, full curve]",,
COc1ccc(C2(C#N)CCC(C(=O)O)CC2)cc1OC1CCCC1 (stereo unspecified),active: 16.6 µM,"inconclusive: 23.5 µM [cytotoxic, partial curve, poor fit]",active: 16.6 µM,,inactive,,,"inconclusive: 29.6 µM [falling, single point]",,
CCCCCCCc1ccc(CCc2cccc(O)c2C(=O)O)cc1,"inconclusive: 8.33 µM [cytotoxic, partial curve, poor fit]",active: 29.6 µM,"inconclusive: 3.72 µM [cytotoxic, full curve, poor fit]",,active: 16.6 µM,,inactive,inconclusive: 13.2 µM,,
CC1(COc2ccc3c(c2)ncn3-c2ccc3cccc(N4CCC(N)CC4)c3n2)COC1,"inconclusive: 0.0743 µM [cytotoxic, full curve]",,"inconclusive: 0.0047 µM [cytotoxic, full curve]",active: 0.743 µM,,"inconclusive: 5.9 µM [cytotoxic, full curve, poor fit]",active: 0.372 µM,"inconclusive: 0.132 µM [falling, full curve]",inconclusive: 2.7% [cytotoxic],
CCC(=O)O[C@]1(C(=O)SCF)[C@H](C)C[C@H]2[C@@H]3C[C@H](F)C4=CC(=O)C=C[C@]4(C)[C@@]3(F)[C@@H](O)C[C@@]21C,active: 33.2 µM,"inconclusive: 29.6 µM [cytotoxic, partial curve, poor fit]","inconclusive: 33.2 µM [cytotoxic, single point]","inconclusive: 1.48 µM [cytotoxic, partial curve, poor fit]",active: 0.0019 µM,,,"inconclusive: 26.4 µM [falling, single point]",,
CC1=C(C(=O)O)N2C(=O)[C@@H](NC(=O)C(N)c3ccccc3)[C@H]2SC1 (stereo partly specified),inactive,inactive,inactive,,"inconclusive: 13.2 µM [rising, single point]",,inactive,,,
Cn1cnc2c(F)c(Nc3ccc(Br)cc3F)c(C(=O)NOCCO)cc21,"inconclusive: 0.187 µM [cytotoxic, full curve, poor fit]","inconclusive: 0.0093 µM [cytotoxic, full curve, poor fit]",inactive,"inconclusive: 33.2 µM [cytotoxic, single point]",inactive,inactive,,"inconclusive: 0.0662 µM [falling, full curve]",,
CC(=O)NC(CS)C(=O)O (stereo unspecified),inactive,inconclusive: 0.001 µM,inactive,"inconclusive: 33.2 µM [cytotoxic, single point]",,"inconclusive: 37.2 µM [cytotoxic, single point]",,,,
Cc1n[nH]c(C)c1Cc1sc2c(c1C(=O)N1C[C@H](O)CO1)c(=O)n(C)c(=O)n2CC(C)C,inactive,"inconclusive: 11.8 µM [cytotoxic, partial curve, poor fit]",inactive,,"inconclusive: 2.35 µM [cytotoxic, partial curve, poor fit]",active: 0.0526 µM,,,,
CN1CCN(c2ncc(-c3cc(Cl)cc(Cl)c3Cl)c(N)n2)CC1,"inconclusive: 20.9 µM [cytotoxic, partial curve, poor fit]",inactive,"inconclusive: 6.62 µM [cytotoxic, partial curve, poor fit]","inconclusive: 0.0166 µM [rising, full curve, poor fit]",,inactive,inactive,"inconclusive: 16.6 µM [falling, partial curve, poor fit]",,
Oc1ccc(C2CNCCc3c2cc(O)c(O)c3Cl)cc1 (stereo unspecified),"inconclusive: 23.5 µM [cytotoxic, partial curve]","inconclusive: 9.35 µM [rising, partial curve, poor fit]","inconclusive: 4.18 µM [cytotoxic, partial curve, poor fit]",,inactive,,,,,"inconclusive: 17.8 µM [inhibitor, single point]"
NC(=O)c1cccnc1,inactive,inactive,"inconclusive: 26.4 µM [cytotoxic, single point]","inconclusive: 5.26 µM [cytotoxic, partial curve, poor fit]","inconclusive: 0.0083 µM [cytotoxic, full curve, poor fit]",,,,,inactive
CCOc1ccccc1OCCNC(C)Cc1ccc(OC)c(S(N)(=O)=O)c1 (stereo unspecified),inactive,inactive,inactive,,inactive,,"inconclusive: 14.8 µM [cytotoxic, partial curve, poor fit]",,,
COc1c2occc2cc2ccc(=O)oc12,"inconclusive: 0.296 µM [cytotoxic, full curve, poor fit]","inconclusive: 33.2 µM [rising, partial curve, poor fit]",inactive,,"inconclusive: 5.9 µM [cytotoxic, partial curve, poor fit]","inconclusive: 37.2 µM [cytotoxic, single point]",,,,
CC(C)(O)CCc1ccc(OCc2cc(-c3cccc(OC(F)F)c3)c3ncccc3c2)cc1,"inconclusive: 18.7 µM [cytotoxic, partial curve, poor fit]","inconclusive: 23.5 µM [cytotoxic, partial curve, poor fit]",inactive,,"inconclusive: 0.743 µM [rising, full curve, poor fit]",,inactive,,,
CCC(=O)NCC[C@@H]1CCc2ccc3c(c21)CCO3,inactive,inactive,"inconclusive: 26.4 µM [cytotoxic, single point]","inconclusive: 0.0012 µM [cytotoxic, full curve, poor fit]",inactive,,,"inconclusive: 23.5 µM [falling, single point]",,
CCCc1nc(C(C)(C)O)c(C(=O)O)n1Cc1ccc(-c2ccccc2-c2nn[nH]n2)cc1,"inconclusive: 10.5 µM [cytotoxic, single point]","inconclusive: 0.0118 µM [cytotoxic, full curve, poor fit]",inactive,,inactive,inactive,inactive,,,
Cc1ccc(NC(=O)c2cccc(C(C)(C)C#N)c2)cc1Nc1ccc2ncn(C)c(=O)c2c1,"inconclusive: 8.33 µM [cytotoxic, full curve, poor fit]","inconclusive: 16.6 µM [cytotoxic, partial curve, poor fit]",inactive,,"inconclusive: 11.8 µM [cytotoxic, partial curve]",,"inconclusive: 18.7 µM [cytotoxic, partial curve]","inconclusive: 1.48 µM [falling, full curve]",,
Clc1ccc2c(N3CCN(CCCN4CCN(c5ccnc6cc(Cl)ccc56)CC4)CC3)ccnc2c1,"inconclusive: 0.182 µM [rising, full curve, poor fit]",inactive,"inconclusive: 0.0008 µM [rising, full curve, poor fit]",,"inconclusive: 5.75 µM [rising, single point]",,,inconclusive: 0.144 µM,,

# Already shown: 5 of the compounds above.
SMILES,Potency [1],Potency [2],Potency [3],Potency [4],Potency [5],Potency [6],Potency [7],Potency [8],viability (% of DMSO control) [2],Potency [9]
COc1cc2c(cc1OC)C1CC(=O)C(CC(C)C)CN1CC2 (stereo unspecified),"inconclusive: 18.7 µM [cytotoxic, partial curve, poor fit]","inconclusive: 0.0264 µM [rising, full curve, poor fit]","inconclusive: 0.0017 µM [rising, full curve, poor fit]","inconclusive: 13.2 µM [cytotoxic, partial curve, poor fit]",,,,,,
O=C(Nc1cccc2c(=O)cc(-c3nn[nH]n3)oc12)c1ccc(OCCCCc2ccccc2)cc1,"inconclusive: 37.2 µM [cytotoxic, partial curve, poor fit]",active: 14.8 µM,"inconclusive: 20.9 µM [cytotoxic, partial curve]",,"inconclusive: 23.5 µM [cytotoxic, single point]",active: 23.5 µM,"inconclusive: 20.9 µM [cytotoxic, partial curve]","inconclusive: 16.6 µM [falling, partial curve]",,
C=CC1=C(C(=O)O)N2C(=O)[C@@H](NC(=O)C(=NO)c3csc(N)n3)[C@H]2SC1,"inconclusive: 20.9 µM [cytotoxic, single point]","inconclusive: 1.05 µM [rising, full curve, poor fit]",active: 11.8 µM,,inactive,"inconclusive: 1.32 µM [rising, full curve, poor fit]",,"inconclusive: 0.00935 µM [rising, full curve]",,
COc1cc(-c2nn(C3CCC(N4CCN(C(C)=O)CC4)CC3)c3ncnc(N)c23)ccc1NC(=O)c1cc2ccccc2n1C (stereo unspecified),active: 6.62 µM,"inconclusive: 0.264 µM [cytotoxic, full curve, poor fit]","inconclusive: 5.9 µM [cytotoxic, partial curve, poor fit]","inconclusive: 29.6 µM [cytotoxic, single point]",,active: 4.18 µM,active: 3.32 µM,"inconclusive: 0.662 µM [falling, full curve]",,
COc1ccc(C2(C#N)CCC(C(=O)O)CC2)cc1OC1CCCC1 (stereo unspecified),active: 16.6 µM,"inconclusive: 23.5 µM [cytotoxic, partial curve, poor fit]",active: 16.6 µM,,inactive,,,"inconclusive: 29.6 µM [falling, single point]",,
